Data as given in US20230398228A1, “ERIBULIN-BASED ANTIBODY-DRUG CONJUGATES AND METHODS OF USE” (EISAI R&D MANAGEMENT CO., LTD., priority 2016, published 2023).
Some entries share one result that the patent states for a list of compounds.

What follows are compounds tested on CaOV3 cells (assay: Crystal Violet cytotoxicity assay (Example 1), CaOV3). Details: Example 1 screening.
Assay type: cell-based, human
With COc1cc2cc(c1Cl)N(C)C(=O)C[C@H](OC(=O)[C@H](C)N(C)C(=O)CCCCCN1C(=O)C=CC1=O)[C@]1(C)O[C@H]1[C@H](C)[C@@H]1C[C@@](O)(NC(=O)O1)[C@H](OC)/C=C/C=C(\C)C2 [ER-001159200] the “specificity of cytotoxicity in CaOV3 cells” value (from here on “specificity of cytotoxicity”) was > 2 logs. For COc1cc2cc(c1Cl)N(C)C(=O)C[C@H](OC(=O)C(C)C)[C@]1(C)O[C@H]1[C@H](C)[C@@H]1C[C@@](O)(NC(=O)O1)[C@H](OC)/C=C/[C@H]1N(C(=O)OCc3ccc(NC(=O)[C@H](CCCNC(N)=O)NC(=O)[C@@H](NC(=O)CCCCCN4C(=O)C=CC4=O)C(C)C)cc3)C1(C)C2 (stereo partly drawn) [ER-001161318, MORAb-003-maleimido-(CH2)5-Val-Cit-pAB-ER-001150828], the “specificity of cytotoxicity” value was > 2 logs. In the case of COc1cc2cc(c1Cl)N(C)C(=O)C[C@H](OC(=O)C(C)C)[C@]1(C)O[C@H]1[C@H](C)[C@@H]1C[C@@](O)(NC(=O)O1)[C@H](OC)/C=C/[C@H]1N(C(=O)OCc3ccc(NC(=O)[C@H](CCCNC(N)=O)NC(=O)[C@@H](NC(=O)CCOCCOCCN4C(=O)C=CC4=O)C(C)C)cc3)C1(C)C2 (stereo partly drawn) [ER-001161319], the “specificity of cytotoxicity” value is reported as > 2 logs. In the case of COc1ccc(C[C@H]2NC(=O)/C=C/C[C@@H]([C@H](C)[C@H]3O[C@@H]3c3ccc(CN4CCN(C(=O)OCc5ccc(NC(=O)[C@H](CCCNC(N)=O)NC(=O)[C@@H](NC(C)=O)C(C)C)cc5OCCOCCNC(=O)CCN5C(=O)C=CC5=O)CC4)cc3)OC(=O)[C@H](CC(C)C)NC(=O)C(C)(C)CNC2=O)cc1Cl [LL2-cryptophycin], the “specificity of cytotoxicity” value is reported as > 2 logs. COc1ccc(C[C@H]2NC(=O)/C=C/C[C@@H]([C@H](C)[C@H]3O[C@@H]3c3ccc(CN4CCN(C(=O)OCc5ccc(NC(=O)[C@H](CCCNC(N)=O)NC(=O)[C@@H](NC(C)=O)C(C)C)cc5OCC(=O)NCCCOCCOCCOCCCNC(=O)CCN5C(=O)C=CC5=O)CC4)cc3)OC(=O)[C@H](CC(C)C)NC(=O)C(C)(C)CNC2=O)cc1Cl [LL3-cryptophycin] was tested, and the “specificity of cytotoxicity” value was > 2 logs. With COc1ccc(C[C@H]2NC(=O)/C=C/C[C@@H]([C@H](C)[C@H]3O[C@@H]3c3ccc(CN4CCN(C(=O)OCc5ccc(NC(=O)[C@H](CCCNC(N)=O)NC(=O)[C@@H](NC(=O)CCOCCOCCN6C(=O)C=CC6=O)C(C)C)cc5)CC4)cc3)OC(=O)[C@H](CC(C)C)NC(=O)C(C)(C)CNC2=O)cc1Cl [VCP-cryptophycin] the “specificity of cytotoxicity” value was > 2 logs.
